Reference: patent US20050064493A1 (LICENTIA, published 2005)
Results are given in words; binding and its absence hold for the method and conditions named. Some results given as binding are weak or reduced against the parent protein; the word gives no strength.

Target: T1, human VEGF165 (human), P15692
T1 chain: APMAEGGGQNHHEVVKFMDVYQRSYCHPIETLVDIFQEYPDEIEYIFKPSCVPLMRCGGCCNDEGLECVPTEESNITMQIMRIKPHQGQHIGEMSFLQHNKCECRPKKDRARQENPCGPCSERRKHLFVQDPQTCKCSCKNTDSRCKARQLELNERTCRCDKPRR
Experiment: immunoprecipitation and SDS-PAGE, transfected 293EBNA cells
Details: remark: other sources report otherwise

B1: human VEGF165, P15692 27-191 (ligand, UniProt P15692-4 27-191, looked up)
chain: T1 chain
**Q.** With B1 as the binder, how does the binding read?
**A.** Its binding is “binds”.
